Drawing on publication PMC7259579, this text covers binding for one molecule.

Sequences of proteins named here, by UniProt entry; tags and fusion partners are left off.
UniProt P31000: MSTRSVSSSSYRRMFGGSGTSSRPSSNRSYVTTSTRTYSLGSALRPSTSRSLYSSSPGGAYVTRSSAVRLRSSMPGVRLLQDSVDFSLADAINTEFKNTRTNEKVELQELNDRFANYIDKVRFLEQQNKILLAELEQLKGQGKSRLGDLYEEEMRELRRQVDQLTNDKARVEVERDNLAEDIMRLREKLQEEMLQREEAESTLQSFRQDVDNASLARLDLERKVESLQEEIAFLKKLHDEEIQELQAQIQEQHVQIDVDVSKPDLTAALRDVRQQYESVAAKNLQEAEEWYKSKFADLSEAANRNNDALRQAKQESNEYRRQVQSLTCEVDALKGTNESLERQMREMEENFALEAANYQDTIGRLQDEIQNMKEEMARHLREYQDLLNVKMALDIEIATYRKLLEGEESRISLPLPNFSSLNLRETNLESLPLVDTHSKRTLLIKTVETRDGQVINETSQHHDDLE

In experiment [1] the target is vimentin (rat (endogenous in sciatic nerve)) (UniProt P31000). Briefly: FRET or BRET; acceptor-photobleaching FRET (APb-FRET) by confocal microscopy on fixed, immunolabelled rat sciatic nerve fibers; MAG as donor (Alexa-Fluor 488 secondary antibody), vimentin as acceptor (Alexa-Fluor 555 secondary antibody).
Experiment [2] shares this target. Description: FRET or BRET; sensitized emission FRET (PFRET) by confocal microscopy on fixed, immunolabelled rat sciatic nerve fibers; MAG as donor (Alexa-Fluor 488 secondary antibody), vimentin as acceptor (Alexa-Fluor 555 secondary antibody); E% against acceptor level tells random from clustered signal. (In BRET a luciferase serves as donor, and the signal depends on an acceptor being close.)

No constants are given. Whether binding was seen depends on the method and setting. In cells and extracts the contact can be indirect.

B1: Myelin Associated Glycoprotein (protein, UniProt P07722 20-626)
chain: GHWGAWMPSSISAFEGTCVSIPCRFDFPDELRPAVVHGVWYFNSPYPKNYPPVVFKSRTQVVHESFQGRSRLLGDLGLRNCTLLLSTLSPELGGKYYFRGDLGGYNQYTFSEHSVLDIINTPNIVVPPEVVAGTEVEVSCMVPDNCPELRPELSWLGHEGLGEPTVLGRLREDEGTWVQVSLLHFVPTREANGHRLGCQAAFPNTTLQFEGYASLDVKYPPVIVEMNSSVEAIEGSHVSLLCGADSNPPPLLTWMRDGMVLREAVAESLYLDLEEVTPAEDGIYACLAENAYGQDNRTVELSVMYAPWKPTVNGTVVAVEGETVSILCSTQSNPDPILTIFKEKQILATVIYESQLQLELPAVTPEDDGEYWCVAENQYGQRATAFNLSVEFAPIILLESHCAAARDTVQCLCVVKSNPEPSVAFELPSRNVTVNETEREFVYSERSGLLLTSILTLRGQAQAPPRVICTSRNLYGTQSLELPFQGAHRLMWAKIGPVGAVVAFAILIAIVCYITQTRRKKNVTESPSFSAGDNPHVLYSPEFRISGAPDKYESEKRLGSERRLLGLRGEPPELDLSYSHSDLGKRPTKDSYTLTEELAEYAEIRVK
Turning to B1, the binding result in experiment [1] and in experiment [2] was “no binding” throughout.
